Structures are written as SMILES.

A word on the IC50: it is the midpoint of a concentration-inhibition curve. Read a low IC50 as greater potency in that assay.

This test relates to Trypanosoma cruzi. The test can be described thus: Antitrypanosomal activity against Trypanosoma cruzi Y epimastigotes after 5 days by resazurin dye-based assay. Particulars: 120 h. In general terms: Resazurin is reduced to fluorescent resorufin, in cell work by metabolically active cells.

On to `O=C(Cn1ccnc1[N+](=O)[O-])NCc1ccccc1` [BENZNIDAZOLE], for which 15.9 µM corresponded to half-maximal inhibition (IC50).

The values above are taken from ChEMBL document CHEMBL3108733, “Design, synthesis, and evaluation of hydroxamic acid derivatives as promising agents for the management of Chagas disease” (J Med Chem, 2014).
